Measurements reported in patent US11445912B2, “Robust myocardial blood oxygen level dependent magnetic resonance imaging with long acting coronary vasodilators” (Cedars-Sinai Medical Center, priority 2015, dated 2022).

Test system: Canines
Experiment: Myocardial BOLD CMR, 2D T2 maps post regadenoson (Example 1)
Format: in vivo
Procedure: Canines (n=7) were studied in a PET/MR system. MR acquisitions were used to generate short-axis 2D T2 maps; and the PET acquisitions following ^[…]-ammonia infusion were used to quantify myocardial blood flow (MBF). Initially, 2D T2 maps and PET signals were acquired at rest. Subsequently, regadenoson (2.5 μg/kg) was administrated. T2 maps were acquired at 2- and 10-mins p.r.a and PET signals were acquired at 10-mins p.r.a. Standard deviation (a) of myocardial T2 values was measured at rest, 2- and 10-mins p.r.a from T2 maps and were used to determine Myocardial BOLD Variability (MBV, defined as σT2(stress)/σT2(rest)) at 2- and 10-min p.r.a. Similarly, using the mean T2 values, Myocardial BOLD Response (MBR, defined as T2(stress)/T2(rest)) was computed at 10-mins p.r.a. PET images were analyzed with qPET software to determine MBF and MPR at rest and 10-mins p.r.a and were regressed against MBR.

## CNC(=O)c1cnn(-c2nc(N)c3ncn([C@@H]4O[C@H](CO)[C@@H](O)[C@H]4O)c3n2)c1 [regadenoson]
2-mins post regadenoson administration
  Myocardial BOLD Variability (MBV, σT2(stress)/σT2(rest)): 1.6±0.9
10-mins post regadenoson administration
  Myocardial BOLD Variability (MBV, σT2(stress)/σT2(rest)): 1.0±0.3
